Literature values in US20220235255A1, “FLUORINE SUBSTITUTED UNSYMMETRICAL ETHERS, AND COMPOSITIONS, METHODS AND USES INCLUDING SAME” (HONEYWELL INTERNATIONAL INC., priority 2021, published 2022).

Details: GWP of the primary refrigerant; cited from earlier work

Row | SMILES | GWP Primary
1 | F/C=C/C(F)(F)F [R1234ze(E)] | <1
2 | C=C(F)C(F)(F)F [Compound R1234yf] | <1
3 | CCC [Propane] | 3
